Results reported in PubChem BioAssay AID190 (DTP/NCI, 2004).
The list shows only some results of the screen, not a fair sample: it is rich in T/C values a quarter to a half above the control, in often repeated tests (any T/C) and in doses without a T/C. Other doses and runs of a compound stand elsewhere. T/C: endpoint of the treated group in % of that of the vehicle group. Some doses have a count of surviving animals in place of a T/C: the source holds a T/C of zero for them, seemingly a mark for toxic or unscored doses. Some doses without a T/C left all or most animals alive at the check, yet need not have been tolerated: survival well below the control is almost never listed, so the zero probably covers shortened survival too. Counts of survivors are from the toxicity check (mostly the fifth day) where no day follows; animals may have died later. Schedules are NCI's codes, read here as Q, the interval in days (D) or hours (H), X, the number of doses. Some entries hold several experiments; the values are given in rising order. Where survival is the endpoint, the PubChem record calls one and a half times the control and up active, and a quarter to a half above the control has no call in these data; cut-offs in other NCI protocols can differ. Some T/C values carry the count of animals alive at the toxicity check (mostly the fifth day); without a count, all were alive then. Additions like (4×) say how often a value occurs here.

System: AKR/Lw mice, AKR lymphoma ip, median survival T/C
Assay: NCI In Vivo Anticancer Drug Screen. Data for tumor model Lymphoma AKR (Transplanted) (intraperitoneal) in AKR/Lw mice
Conditions: T/C endpoint: median survival time, higher T/C = longer survival
Experimental: The antitumor activity of compounds was measured in mice bearing transplantable tumors. Survival or tumor size were measured and the results are expressed as the measurement made in the treated group (T) divided by the measurement made in the vehicle treated control group (C). The tumor model used in this assay is Lymphoma AKR (Transplanted) (intraperitoneal) in AKR/Lw mice

[1] = dose: 7.5 mg/kg/injection, schedule: Q01DX009 (ip), vehicle: saline
[2] = dose: 15.0 mg/kg/injection, schedule: Q01DX009 (ip), vehicle: saline
[3] = dose: 20.0 mg/kg/injection, schedule: Q01DX009 (ip), vehicle: saline
[4] = dose: 25.0 mg/kg/injection, schedule: Q04DX003 (ip), vehicle: saline
[5] = dose: 50.0 mg/kg/injection, schedule: Q01DX001 (ip), vehicle: saline
[6] = dose: 100.0 mg/kg/injection, schedule: Q01DX001 (ip), vehicle: saline
[7] = dose: 100.0 mg/kg/injection, schedule: Q04DX003 (ip), vehicle: saline
[8] = dose: 125.0 mg/kg/injection, schedule: Q07DX003 (ip), vehicle: saline
[9] = dose: 150.0 mg/kg/injection, schedule: Q01DX001 (ip), vehicle: saline
[10] = dose: 300.0 mg/kg/injection, schedule: Q01DX001 (ip), vehicle: saline
[11] = dose: 500.0 mg/kg/injection, schedule: Q01DX001 (ip), vehicle: saline

Structure (SMILES): O=P1(NCCCl)OCCCN1CCCl (centres undefined)
- T/C [1]: 142 % of control
- survivor count [1]: 10 of 10
- T/C [2]: 105, 115, 134 % of control
- survivor count [2]: 10 of 10
- T/C [3]: 126 and 141 % of control
- survivor count [3]: 10 of 10
- T/C (dose: 25.0 mg/kg/injection, schedule: Q01DX009 (ip), vehicle: saline): 129 % of control
- T/C [4]: 110, 115, 126 % of control
- survivor count [4]: 10 of 10
- T/C (dose: 25.0 mg/kg/injection, schedule: Q07DX003 (ip), vehicle: saline): 126, 128, 139 % of control
- T/C (dose: 30.0 mg/kg/injection, schedule: Q01DX009 (ip), vehicle: saline, evaluated on day 45): 123 % of control
- T/C (dose: 30.0 mg/kg/injection, schedule: Q01DX009 (ip), vehicle: saline, evaluated on day 60): 118 and 150 % of control
- survivor count (dose: 30.0 mg/kg/injection, schedule: Q01DX009 (ip), vehicle: saline): 9 of 10 and 10 of 10
- survivor count (dose: 40.0 mg/kg/injection, schedule: Q01DX009 (ip), vehicle: saline): 9 of 10
- survivor count (dose: 45.0 mg/kg/injection, schedule: Q01DX009 (ip), vehicle: saline): 9 of 10 and 5 of 5
- T/C [5]: 87, 120, 127, 154 % of control
- T/C (dose: 50.0 mg/kg/injection, schedule: Q01DX009 (ip), vehicle: saline): 126 % of control
- T/C (dose: 50.0 mg/kg/injection, schedule: Q04DX003 (ip), vehicle: saline): 105, 111, 116, 128, 132 % of control
- T/C (dose: 50.0 mg/kg/injection, schedule: Q07DX003 (ip), vehicle: saline): 144 % of control
- T/C (dose: 60.0 mg/kg/injection, schedule: Q01DX009 (ip), vehicle: saline): 126 % of control
- T/C (dose: 75.0 mg/kg/injection, schedule: Q01DX001 (ip), vehicle: saline): 131, 134, 136 % of control
- T/C (dose: 75.0 mg/kg/injection, schedule: Q04DX003 (ip), vehicle: saline): 135 % of control
- survivor count (dose: 80.0 mg/kg/injection, schedule: Q01DX009 (ip), vehicle: saline): 10 of 10
- T/C [6]: 95 [9 of 10 alive], 115, 130, 147, 168 % of control
- T/C (dose: 100.0 mg/kg/injection, schedule: Q01DX009 (ip), vehicle: saline): 126 % of control
- T/C [7]: 117, 131, 141 % of control
- survivor count [7]: 9 of 10 and 10 of 10
- survivor count (dose: 100.0 mg/kg/injection, schedule: Q07DX003 (ip), vehicle: saline): 10 of 10
- survivor count (dose: 125.0 mg/kg/injection, schedule: Q04DX003 (ip), vehicle: saline): 10 of 10
- T/C [8]: 139 % of control
- survivor count [8]: 9 of 10
- T/C [9]: 115, 140, 145, 153, 169, 190 % of control
- survivor count [9]: 10 of 10
- survivor count (dose: 150.0 mg/kg/injection, schedule: Q04DX003 (ip), vehicle: saline): 10 of 10
- survivor count (dose: 160.0 mg/kg/injection, schedule: Q01DX009 (ip), vehicle: saline): 9 of 10
- T/C (dose: 200.0 mg/kg/injection, schedule: Q01DX001 (ip), vehicle: saline): 95, 148, 180, 186 [9 of 10 alive], 210 % of control
- T/C (dose: 200.0 mg/kg/injection, schedule: Q04DX003 (ip), vehicle: saline): 144 % of control
- T/C (dose: 250.0 mg/kg/injection, schedule: Q01DX001 (ip), vehicle: saline): 125 % of control
- survivor count (dose: 250.0 mg/kg/injection, schedule: Q04DX003 (ip), vehicle: saline): 10 of 10
- T/C [10]: 147, 156 (2×), 160 % of control
- survivor count [10]: 10 of 10
- survivor count (dose: 400.0 mg/kg/injection, schedule: Q01DX001 (ip), vehicle: saline): 5 of 10 and 10 of 10
- T/C [11]: 125 % of control
- survivor count [11]: 8 of 10
- survivor count (dose: 500.0 mg/kg/injection, schedule: Q01DX001 (sc), vehicle: steroid suspending solution): 9 of 10
- T/C (dose: 500.0 mg/kg/injection, schedule: Q04DX003 (ip), vehicle: saline, evaluated on day 45): 128 % of control
- T/C (dose: 500.0 mg/kg/injection, schedule: Q04DX003 (ip), vehicle: saline, evaluated on day 60): 88 % of control [9 of 10 alive]
- survivor count (dose: 500.0 mg/kg/injection, schedule: Q04DX003 (ip), vehicle: saline): 9 of 10 and 10 of 10
- survivor count (dose: 600.0 mg/kg/injection, schedule: Q01DX001 (ip), vehicle: saline): 0 of 10
- survivor count (dose: 700.0 mg/kg/injection, schedule: Q01DX001 (ip), vehicle: saline): 6 of 10
- survivor count (dose: 800.0 mg/kg/injection, schedule: Q01DX001 (ip), vehicle: saline): 3 of 10

Structure (SMILES): C[N+](C)(C)Cc1ccccc1
- survivor count [5]: 1 of 10
- survivor count [6]: 0 of 10

Structure (SMILES): Nc1nc(=S)c2[nH]cnc2[nH]1
- survivor count (dose: 4.0 mg/kg/injection, schedule: Q01DX009 (ip), vehicle: saline): 9 of 10
- survivor count (dose: 4.0 mg/kg/injection, schedule: Q04DX003 (ip), vehicle: saline): 10 of 10
- survivor count (dose: 8.0 mg/kg/injection, schedule: Q01DX009 (ip), vehicle: saline): 10 of 10
- survivor count (dose: 16.0 mg/kg/injection, schedule: Q01DX009 (ip), vehicle: saline): 10 of 10
- survivor count (dose: 32.0 mg/kg/injection, schedule: Q04DX003 (ip), vehicle: saline): 9 of 10
- survivor count (dose: 64.0 mg/kg/injection, schedule: Q04DX003 (ip), vehicle: saline): 10 of 10
